“And” between values parts separate entries of the source, which are not always exact repeats. Identical values can stand only once. Like-named read-outs stand apart in the source and are kept apart here.
How the values were obtained:
[1] = Gelation of resin on plastograph at 150° C, 30 r.p.m., 25 g
[2] = Sticking of the lubricated resin, mixer cylinders 210° C, 0.25 mm
[3] = Dynamic thermostability of the resin on plastograph at 210° C, 60 r.p.m., 30 g; details: for Minimal resistant torque: as internal lubricating agent, 1 part, 210° C
[4] = as external lubricating agent, 0.3 part, 150° C
[5] = as internal lubricating agent, 1 part, 150° C
[6] = as external lubricating agent, 0.3 part, 210° C, 0.25mm
[7] = as internal lubricating agent, 1 part, 210° C, 0.25 mm

Row | Compound | End of gelation [1] | Resistance time to sticking [2] | Minimal resistant torque [3] [m.kg] | Self-heating time [3] [min] | Start of gelation [1] [s] | End of gelation [1, 4] [s] | Start of gelation [1, 4] [s] | End of gelation [1, 5] [s] | Start of gelation [1, 5] [s] | Resistance time to sticking [2, 6] [min] | Resistance time to sticking [2, 7] [min] | Sticking, observation [2, 7] | Time of the observed blackening or sticking and decomposition [2, 7] [min] | End of gelation ([1]; study E(a), 0.5 part, 150° C) [s] | Start of gelation ([1]; study E(a), 0.5 part, 150° C) [s] | Resistance time to sticking ([2]; study E(a), 0.5 part, 210° C, 0.25mm) [min]
1 | CCCCCCCCCCCCCCCCCCCCCC(=O)OCCSCCOC(=O)CCCCCCCCCCCCCCCCCCCCC [Compound 2, Thiodiglycol dibehenate] | 180 s and 260 s | 21 and 20 | 1.070 | – | – | – | – | – | – | – | – | – | – | – | – | –
2 | glyceryl trihydroxystearate [reference compound] | – | – | – | 14 | – | – | – | – | – | – | – | – | – | – | – | –
3 | CCCCCCCCCCCCCCCCCC(=O)O [calcium stearate, reference compound] | 70 s | 15.5 min | – | – | 10 | – | – | – | – | – | – | – | – | – | – | –
4 | CCCCCCCCCCCCCCCCCCCCCC(=O)O [calcium behenate] | 90 s | 15.5 min | – | – | 15 | – | – | – | – | – | – | – | – | – | – | –
5 | CCCCCCCCCCCCCCCCCCCCCC(=O)OCC(C)OC(=O)CCCCCCCCCCCCCCCCCCCCC (centres unmarked) [Compound 1, 1,2-propanediol dibehenate] | – | – | 1.060 | – | – | 210 | 50 | 260 | 120 | 16 | 21.5 | – | – | – | – | –
6 | CCCCCCCCCCCCCCCCCCCCCC(=O)OCC(CC)(COC(=O)CCCCCCCCCCCCCCCCCCCCC)COC(=O)CCCCCCCCCCCCCCCCCCCCC [Compound 5, Trimethylolpropane tribehenate] | – | – | 1.060 | – | – | 190 | 45 | 380 | 180 | 15.5 | 27 | stuck and decomposed | 27 | – | – | –
7 | CCCCCCCCCCCCCCCCCCCCCC(=O)OCCCCOC(=O)CCCCCCCCCCCCCCCCCCCCC [Compound 7, 1,4-butanediol dibehenate] | – | – | 1.070 | – | – | 210 | 45 | 255 | 120 | 17 | 23 | – | – | – | – | –
8 | CCCCCCCCCCCCCCCCCCCCCC(=O)OCC(COC(=O)CCCCCCCCCCCCCCCCCCCCC)OC(=O)CCCCCCCCCCCCCCCCCCCCC [Compound 8, Glyceryl tribehenate] | – | – | 1.065 | – | – | 210 | 50 | 380 | 180 | 13 | 26 | did not stick but the resin became black | 26 | 90 | 20 | 11
9 | CCCCCCCCCCCCCCCCCCCCCC(=O)OCC(COC(=O)CCCCCCCCCCCCCCCCCCCCC)(COC(=O)CCCCCCCCCCCCCCCCCCCCC)COC(=O)CCCCCCCCCCCCCCCCCCCCC [Compound 9, Pentaerythrite tetrabehenate] | – | – | 1.065 | – | – | 200 | 40 | 585 | 360 | 19 | 26 | stuck and decomposed | 26 | – | – | –
10 | CCCCCCCCCCCCCCCCCCCCCC(=O)OCCOCCOCCOC(=O)CCCCCCCCCCCCCCCCCCCCC [Compound 4, Triethyleneglycol dibehenate] | – | – | 1.070 | – | – | – | – | 265 | 105 | – | 23 | – | – | – | – | –
11 | CCCCCCCCCCCCCCCCCCCCCC(=O)OCCOCCOC(=O)CCCCCCCCCCCCCCCCCCCCC [Compound 3, Diethyleneglycol dibehenate] | – | – | 1.050 | – | – | – | – | 270 | 120 | – | 22 | – | – | – | – | –

Reference: patent publication US4098706A, “Lubricating agents for thermoplastic materials and process for preparing the same” (Sapchim-Fournier-Cimag, priority 1975, dated 1978)
